According to the supplement of paper PMC3334620:
Whole data set: some 33,000 sequences, median “E-score (-0.5 to 0.5)” near -8e-05, cut for the highest 2% near 0.23. Some of the results follow.

Molecular target: T1, Nrg2 (UniProt P38082)
T1 sequence: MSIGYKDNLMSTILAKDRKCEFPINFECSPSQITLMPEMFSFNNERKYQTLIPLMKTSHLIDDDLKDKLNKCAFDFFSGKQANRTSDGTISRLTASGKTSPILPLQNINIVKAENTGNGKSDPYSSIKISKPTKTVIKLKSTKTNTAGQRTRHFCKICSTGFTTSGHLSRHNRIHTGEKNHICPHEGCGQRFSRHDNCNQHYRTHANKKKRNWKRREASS
Test: PBM E-score (8-mer binding enrichment) (E-score (-0.5 to 0.5)); higher = stronger / more preferred TF binding
Conditions: protein concentration: 100 nM; construct: GST-full length
Summary of the method: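 GST-tagged yeast TFs (full-length or DNA-binding domain) were made by PURExpress in vitro transcription/translation and applied at about 100-200 nM to universal all-10-mer Agilent arrays. The arrays were made double-stranded by primer extension, on fresh or once-stripped slides. Bound protein was detected with fluorescent anti-GST, and scans were normalised with masliner. Each ungapped eight-base word, pooled with its reverse complement, received an E-score (modified Wilcoxon-Mann-Whitney statistic) from the Universal PBM Analysis Suite.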

| Sequence | PBM E-score |
| --- | --- |
| CCTAGGTA | -0.0874 |
| AGGCTCAG | -0.206 |
| GGCGGAAA | -0.0333 |
| ATACCCCC | -0.177 |
| CGGGAAAC | 0.0907 |
| CCCCTTTA | -0.0844 |
| CGGTCGTC | -0.128 |
| ACCATGGT | -0.195 |
| ACTCTGAG | -0.211 |
| GAGAACCA | 0.00307 |
| CACGGGAA | -0.0452 |
| ATACTCTC | -0.0255 |
| CCCCCACC | -0.382 |
| CCCAGACG | -0.0304 |
| GAGGGAAA | -0.134 |
| GCTACGCC | -0.122 |
| CTCCCATA | -0.19 |
| ATCTCTTG | -0.169 |
| AGGGCACT | -0.0548 |
| CCGTAACC | -0.136 |
| ATTGCAGA | 0.0609 |
| CACCCTGG | 0.0652 |
| ACAGCCAC | 0.139 |
| CCTCATGC | -0.141 |
| ATCGTCCG | 0.0505 |

| Sequence | PBM E-score |
| --- | --- |
| AAATTCAT | -0.00189 |
| CACCCGTA | -0.0208 |
| ACTTCATG | 0.0194 |
| AACAGTTA | 0.0888 |
| CCGCGAAC | 0.0734 |
| AGAGGAGC | -0.209 |
| AATCCATG | -0.0915 |
| ACGCGCCG | 0.025 |
| CATTTTGG | -0.0285 |
| GATACACA | 0.0621 |
| AGAAATAG | 0.0811 |
| CTAAATCA | 0.0351 |
| GTACCCGA | -0.211 |
| CTCTCCGA | -0.209 |
| ACACTGCT | -0.0746 |
| AGCGATTG | -0.0488 |
| ACTGAGAG | 0.0147 |
| GAGAAGAA | -0.0817 |
| TGCCAGAA | 0.0378 |
| ACGGTACG | -0.157 |
| TACTTGCA | 0.179 |
| GCCCGTCC | -0.307 |
| ACTTCTAA | -0.0126 |
| GTGGCATA | 0.0404 |
| AGGTTCTG | -0.0492 |

Quoted from the listing:
PBM E-score, GTGGCATA is entered as 0.0404
PBM E-score, CCGCGAAC is entered as 0.0734
PBM E-score, TACTTGCA is entered as 0.179
PBM E-score, AGCGATTG is entered as -0.0488
PBM E-score, GATACACA is entered as 0.0621
PBM E-score, CACCCGTA is entered as -0.0208
PBM E-score, AGAGGAGC is entered as -0.209

The listing continues:

| Sequence | PBM E-score |
| --- | --- |
| AGTCGAAA | 0.0504 |
| CCTACATA | -0.152 |
| GGGTCTGA | 0.135 |
| GTAAATAA | 0.0336 |
| TAGTTTCA | 0.258 |
| GACAGTCA | -0.155 |
| AGTAGCTC | -0.158 |
| ATATGCCG | 0.0896 |
| CACCTCGG | 0.0179 |
| TACATGAA | -0.115 |
| GGAACTCC | 0.0233 |
| ACTGGACT | -0.0793 |
| GTATCCTA | -0.143 |
| GACATAAA | 0.109 |
| GTCCTGTA | -0.0697 |
| AGGACATA | 0.0877 |
| CACAGACG | -0.0651 |
| AAGTGCGT | 0.0697 |
| CTCGGCAG | 0.107 |
| CCGGGTGA | -0.104 |
| GCATAAAA | 0.00462 |
| AAGCACCT | -0.0193 |
| ATATTGGC | 0.0588 |
| CACCTGCG | -0.0377 |
| AACGTTCG | -0.0564 |

| Sequence | PBM E-score |
| --- | --- |
| CGTCCCGC | -0.028 |
| ACTCGTGA | -0.145 |
| AAGCTTTG | 0.077 |
| AAGATAGC | 0.0443 |
| TCAGGTCA | 0.116 |
| ATGTGAGC | -0.0373 |
| CTTCTAGA | -0.204 |
| ACCGTCCC | -0.136 |
| GAAAGAGA | -0.04 |
| AACTTCCG | 0.00745 |
| ATCCGCTG | -0.0161 |
| ATGCAGTA | 0.22 |
| ACTTTAAT | 0.0404 |
| ACGGAGCG | 0.0402 |
| AACAGAAT | -0.058 |
| GTATTCAA | 0.11 |
| ATACCGTG | 0.00169 |
| GAAGCACA | 0.1 |
| CAATCCCG | 0.193 |
| GCACGTGA | -0.0876 |
| AACTTAAC | 0.129 |
| ATTTCTAC | -0.0899 |
| ACTACTTG | 0.158 |
| CCCCGGGG | -0.175 |
| AAGAATCA | 0.139 |

| Sequence | PBM E-score |
| --- | --- |
| CATTAACG | 0.109 |
| GGTTGAAC | 0.116 |
| ACCTGGGC | -0.294 |
| ATCCGCTA | 0.00576 |
| CATTCAGA | 0.00234 |
| ACACATGT | 0.101 |
| GCGTGTCC | -0.0355 |
| CCTGATTC | 0.12 |
| ATTAAGAC | -0.136 |
| CGCATAAA | 0.0248 |
| ATATCACG | 0.122 |
| GCACTCAA | 0.0408 |
| ACCCCGGA | 0.0302 |
| TGTACACA | -0.0321 |
| ATACTGGA | 0.158 |
| AGCACCGA | 0.184 |
| AAAGTGCT | -0.072 |
| AAAAGGCA | 0.125 |
| CAACCACA | 0.105 |
| AAAGGATT | 0.0159 |
| CTGACAAA | 0.0246 |
| GGTGTTGA | -0.0624 |
| AAGCCCAG | -0.126 |
| ATAGCCTG | -0.224 |
| AAGGCAAT | 0.149 |

| Sequence | PBM E-score |
| --- | --- |
| ACACATCC | 0.107 |
| GACTGCAA | -0.0832 |
| ACATAGAC | -0.016 |
| CGCCCCGC | -0.112 |
| TCCAATAA | 0.0718 |
| AACGTACT | 0.0763 |
| CTAGAGTC | -0.344 |
| CGAGTGCG | 0.0439 |
| AGAGACTC | -0.129 |
| CTAAAGCA | 0.0491 |
| AAGGCATC | -0.282 |
| GTGTAAAC | 0.00127 |
| ATCAGGTG | -0.039 |
| ATGTATCG | 0.194 |
| ACCGGGGA | -0.317 |
| ACGTTTGG | -0.246 |
| ACACTGCA | -0.0569 |
| TGAGATCA | -0.045 |
| AAGACGAC | 0.0398 |
| AGCCAACC | 0.0974 |
| CTTCTTCC | -0.166 |
| AGAAAGGA | 0.0396 |
| ATTTAACA | 0.0136 |
| ACCAGAAC | 0.238 |
| AATCAAAT | 0.18 |

| Sequence | PBM E-score |
| --- | --- |
| ATACTCAT | -0.114 |
| GAGAGGAA | 0.084 |
| CGCGTCAG | -0.116 |
| AACTGTGG | 0.108 |
| CGGAAAAA | -0.0675 |
| ATTATCGC | 0.254 |
| CCAATTCC | 0.0538 |
| AGGGTATG | 0.212 |
| ATGGACAA | 0.143 |
| AGGCAGGC | -0.121 |
| CAGATTAC | -0.0348 |
| ACGATGTA | 0.059 |
| CAGGGTCC | 0.446 |
| CGATGATA | -0.00501 |
| CATAGCTC | -0.112 |
| CGAGCGTA | -0.0601 |
| ACAGTGGA | 0.19 |
| CGTCTCAG | -0.0393 |
| AAAGATCG | 0.0698 |
| ACCTCTCC | -0.318 |
| CTTAATAC | 0.188 |
| AACTCGAG | 0.194 |
